Patent publication US20220267288A1, “CARDIAC THERAPEUTIC” (priority 2019, published 2022)

What was measured:
[1] = system: dogs; assay: Electrophysiological variables (AERP, VERP, repolarization periods) in halothane-anesthetized dogs; format: in vivo, dog; conditions: 3 mg/kg, 60 min after administration
Description: Animals were obtained through Kitayama Labes Co., Ltd. (Nagano, Japan). All experiments were approved by the Toho University Animal Care and User Committee (No. 18-51-395) and performed according to the Guideline for the Care and Use of Laboratory Animals of Toho University.
The dogs were initially anesthetized with thiopental sodium (30 mg/kg, i.v.). After intubation with a cuffed endotracheal tube, anesthesia was maintained by inhalation of halothane (1% v/v) vaporized in oxygen with a volume-limited ventilator (SN-480-3; Shinano Manufacturing Co., Ltd., Tokyo, Japan). Tidal volume and respiratory rate were set at 20 mL/kg and 15 breaths/min, respectively. […]
The lead II electrocardiogram was obtained from the limb electrodes. The P-wave duration, PR interval, QRS width and QT interval were measured, and QT interval was corrected with Van de Water's formula: QTc=QT-0.087×(RR-1,000) with RR given in ms. The J-Tpeak and Tpeak-Tend were measured as follows. […]
A standard 6-French, quad-polar electrodes catheter (Cordis-Webster Inc., Baldwin Park, Calif., USA) was positioned at the non-coronary cusp of the aortic valve through the left femoral artery to obtain the His bundle electrogram. […] The duration of the MAP signals was measured as an interval, along a horizontal line corresponding to the diastolic baseline, from the MAP upstroke to the desired repolarization level. […]

[2] = biological target: T1, CYP2J2 (Homo sapiens, UniProt P51589); assay: Inhibition of CYP2J2-mediated astemizole metabolism in hiPSC-CM; format: cell-based; design: endogenous in cells; host or cells: hiPSC-CM (from human foreskin fibroblasts); conditions: 2 μM drug co-incubated with 1 μM astemizole, 24 h
T1 sequence (P51589 1-502): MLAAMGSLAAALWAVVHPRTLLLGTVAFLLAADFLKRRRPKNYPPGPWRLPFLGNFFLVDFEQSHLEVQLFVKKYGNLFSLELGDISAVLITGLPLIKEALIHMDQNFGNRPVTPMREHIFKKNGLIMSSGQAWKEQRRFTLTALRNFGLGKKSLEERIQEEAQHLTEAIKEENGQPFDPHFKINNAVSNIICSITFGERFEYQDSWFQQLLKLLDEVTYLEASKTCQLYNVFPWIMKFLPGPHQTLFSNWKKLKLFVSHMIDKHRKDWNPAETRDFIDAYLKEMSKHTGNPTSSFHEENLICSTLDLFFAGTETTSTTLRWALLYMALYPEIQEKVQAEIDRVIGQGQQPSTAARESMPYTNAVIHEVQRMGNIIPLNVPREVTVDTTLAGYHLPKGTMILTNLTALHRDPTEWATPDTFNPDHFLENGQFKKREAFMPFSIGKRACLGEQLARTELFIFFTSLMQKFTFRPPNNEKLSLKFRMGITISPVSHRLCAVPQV
Description: Human foreskin fibroblasts were reprogrammed to form human induced pluripotent stem cells (hiPSC) using viral-free method. hiPSC cell lines were differentiated to cardiomyocytes (hiPSC-CM) as reported previously^1. […] were seeded at a density 100,000 cell/well in a 12-well plate and differentiated for 30 days. […] The cells were then washed with 1×PBS twice and dislodged using Accutase® cell detachment solution. The cells were then pelleted at 2000 g for 10 min at 4° C. […] The cells were sonicated for 15 min on ice to bring about complete cell lysis. The lysate was centrifuged at 10,000×g for 15 min at 4° C. The supernatant was collected and analyzed using LC/MS/MS. The LC/MS/MS system consisted of an Agilent 1290 Infinity ultra-high pressure liquid chromatography (UPLC) system (Agilent Technologies Inc., Santa Clara, Calif.) interfaced with the AB SCIEX QTRAP® 5500 tandem mass spectrometry (MS/MS) system (AB SCIEX, Framingham, Mass.). The LC/MS/MS system was controlled by Analyst 1.4.2 software (Applied Biosystems) which performed all chromatographic peak integration. The ACQUITY UPLC BEH C18 column, 1.7 μM, 2.1×50 mm (Waters, Milford, Mass.), was used to achieve chromatographic separation. The temperatures of the column and samples were maintained at 45° C. and 4° C. respectively. […]

inhibition of CYP2J2 in hiPSC-CM [2]: Lack of inhibition
Compound: CCCCc1oc2ccccc2c1C(=O)c1cc(I)c(OCCN(CC)CC)c(I)c1 [Amiodarone]
Atrial selectivity (ΔAERP/ΔVERP) [1]: 3.6
